In article PMC11094040:

Experiments:
[1] = target: FLAG-Spn-E-EQ (E251Q) (silkworm); assay: co-IP; tandem IP: first anti-FLAG IP of FLAG-Spn-E-EQ from BmN4 lysate, 3x FLAG peptide eluate diluted with buffer D, second IP with anti-BmAgo3 antibody (or normal rabbit IgG); beads with or without 200 μg/ml RNase A at 30 °C for 15 min; Siwi detected by western blot
[2] = target: FLAG-Spn-E (wild type) (silkworm); assay: co-IP; anti-FLAG (M2) on Dynabeads Protein G, lysate of BmN4 cells expressing FLAG-Spn-E (wild type or EQ) and treated with dsRNA targeting the Spn-E 3' UTR; buffer B (25 mM Tris-HCl pH 7.6, 150 mM NaCl, 1.5 mM MgCl2, 0.25% Triton X-100), 4 °C; eluted with 3x FLAG peptide; western blot for Siwi and BmAgo3
[3] = target: FLAG-Spn-E-EQ (E251Q) (silkworm); assay: as above

Measured: binding

B1: BmAgo3 (protein, UniProt A9ZSZ2 1-926)
chain: MADPGKGRGRSLALLQALKKSQMMDSPSQSESQSPESTPEQSTAPSTIASATPSTSGVSIGGRGRAAALMLAKMQQKPGSTTPAIFVPPSSTSAPTAGTGRGFKLLQNLQASQKASSQIASSQVTSSAQSDIKDLTEKMSETSVSAQASSVAKNKYFREVKDTPPVVKKGETGVPIEVTCNYIYLNFKENIVFEYEVKFEPDQDYKHLRFKLLNEHIEHFKEKTFDGTTLYVPHELPDAVRNLVSTNPYDQSKVNVSIIFRRTRRLSEMIHIYNVMFKCIMKDLKLIRFGRQHYNEHAAIQIPQHKLEVWPGYVTAVDEYEGGLMLTLDSTHRVLRTQTVLSLIKEVVQTEGANWKRKMTDILIGASVMTTYNKKLFRVDTIDDKMSPRSTFEKTEKGETVQISFIDYYKKNYGIEIMDWDQPLLISRDTKRMPGSDTPTDFMICLIPELCQLTGLTDDQRSNFRLMKDVATYTRITPNQRHAAFKKYIESVMKNETAKSRLAGWGLSIAPETVNLTARTLPPETLYFGDNVRVPGKPNAEWNSEVTKHSVMQAVDIMRWVLLFTQRDKQVAMDFLSTLKRNCRPMGIMVSDAELVPLANDRTDTYVLALKKCITSSVQLVVAICSTKRDDRYAAIKKVCCADNPVPSQVINARTLMNTNKIRSITQKILLQLNCKLGGTLWSISIPFKSAMIVGIDSYHDPSRRNRSVCSFVASYNQSMTLWYSKVIFQEKGQEIVDGLKCCLVDALTHYLRSNGQLPDRIIIYRDGVGDGQLKLLQQYEIPQMKICFTILGSNYQPTLTYVVVQKRINTRIFLKSRDGYDNPNPGTVVDHCITRRDWYDFLIVSQKVTQGTVTPTHYVVVYDDSGITPDQCQRLTYKMCHLYYNWPGTVRVPAPCQYAHKLSYLVGQCVHAQPSDVLVDKLFFL
binds: [1] | [2] | [3]

B2: Siwi (protein, UniProt A8D8P8 1-899)
chain: MSEPRGRGRARGRAGRGGDGGGPAPRRPGEQAGPSQQSMPPGPRPQPPSGWGPQSSVPPVRAGVPTPTAQAGRASHRVTPTTHEHPGDIDVQQRMQKLELGPHSSGGGDASSVVGRGSRRGGGRVLPETISILRTRPEAVTSKKGTSGTPLDLLANYFTVETTPKWGLYQYHVDISPEEDSTGVRKALMRVHSKTLGGYLFDGTVLYTVNRLHPDPMELYSDRKTDNERMRILIKLTCEVSPGDYHYIQIFNIIIRKCFNLLKLQLMGRDYFDPEAKIDIPEFKLQIWPGYKTTINQYEDRLLLVTEIAHKVLRMDTVLQMLSEYAATKGNNYKKIFLEDVVGKIVMTDYNKRTYRVDDVAWNVSPKSTFKMRDENITYIEYYYKKYNLRIQDPGQPLLISRSKPREIRAGLPELIYLVPELCRQTGLSDEMRANFKLMRSLDVHTKIGPDKRIEKLNNFNRRFTSTPEVVEELATWSLKLSKELVKIKGRQLPPENIIQANNVKYPAGDTTEGWTRDMRSKHLLAIAQLNSWVVITPERQRRDTESFIDLIIKTGGGVGFRMRSPDLVVIRHDGPIEYANMCEEVIARKNPALILCVLARNYADRYEAIKKKCTVDRAVPTQVVCARNMSSKSAMSIATKVAIQINCKLGGSPWTVDIPLPSLMVVGYDVCHDTRSKEKSFGAFVATLDKQMTQYYSIVNAHTSGEELSSHMGFNIASAVKKFREKNGTYPARIFIYRDGVGDGQIPYVHSHEVAEIKKKLAEIYAGVEIKLAFIIVSKRINTRIFVQRGRSGENPRPGTVIDDVVTLPERYDFYLVSQNVREGTIAPTSYNVIEDTTGLNPDRIQRLTYKLTHLYFNCSSQVRVPSVCQYAHKLAFLAANSLHNQPHYSLNETLYFL
binds: [1] | [2] | [3]

These are yes or no findings as the source states them, for the method shown. Binding seen in cells or lysates may run through a third protein. Binding calls can cover weak binding; strength is not graded here.
